The source of these data is PubChem BioAssay AID1487 (National Center for Advancing Translational Sciences (NCATS), 2009).

The test in a line: qHTS Assay for Modulators of Lamin A Splicing. As to conditions: HeLa LMNA splicing GFP/RFP minigene ratio, 48 h. The method in brief: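 Read-out is the ratio of GFP to DsRed2 object intensity, acquired by 488 nm laser-scanning cytometry on HeLa lamin A-EGFP minigene reporter cells. Compound incubation 48 hrs at 37 °C in Opti-MEM with 2% FBS; DMSO 0.5% final.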
On the technique in general: qHTS replaces the single test concentration by a dilution series.

Setting [1] is: measured here: GFP splicing reporter channel.
The mark [2] stands for this setting: measured here: RFP viability control channel.

Molecules are shown by their SMILES. The list shows a part of the results. Further columns of the screen follow, without active or inactive calls. Most of these compounds were active or inconclusive in the main read-out, so they are no random draw. Words in brackets tell the shape of the fitted curve; partial curves, single points and poor fits give uncertain potencies.

With `CCCCCCCCCCCCCCCC(=O)O`, the AC50 (as a rule, the concentration giving half of the maximal activity seen) under setting [1] is 0.000794 µM [rising, full curve, poor fit].

For `CCOc1cc(-c2c(C)c(CC)nc(N)c2C#N)ccc1O`, under setting [2], the AC50 is 35.5 µM [rising, single point].

As to `COc1ccc(CC(=O)Nc2nnc(C(C)C)s2)cc1OC`, the AC50 under setting [2] is 35.5 µM [falling, partial curve, poor fit].

For `CC1(C)Cc2c(sc3c2c(=N)n(Cc2ccco2)c(=O)n3CC(=O)Nc2cccc(Cl)c2)CO1`, the AC50 by setting is: under setting [1], 35.5 µM [rising, single point]; under setting [2], 35.5 µM [rising, single point].

Take `O=C(CSc1ncnc2sc3c(c12)CCCC3)N1CCC(c2noc3ccc(F)cc23)CC1`: under setting [1], the AC50 was 3.55 µM [falling, partial curve, poor fit].

`CCOc1ccc(NC(=S)c2ccncc2)cc1`: the AC50 under setting [2] is 10 µM [rising, partial curve].

Consider `CN(C)c1cccc(NC(=O)Cc2ccc(F)cc2)c1`, for which, under setting [1], the AC50 is 12.6 µM [rising, single point].

Turning to `CCc1ccc(/C=N/NC(=O)c2c[nH]c3ccccc23)s1`, the AC50 under setting [2] is 20 µM [rising, partial curve, poor fit].

In the case of `O=[N+]([O-])c1cc(S(=O)(=O)Nc2ccccc2)ccc1-n1nnc2ccccc21`, under setting [2], the AC50 is 35.5 µM [rising, single point].

Consider `O=C(CN(Cc1ccccc1)S(=O)(=O)c1ccc2c(c1)OCCO2)N/N=C/c1cccc(Br)c1`, for which the concentration at half-maximal activity (AC50) under setting [2] was 12.6 µM [rising, single point].

With `O=C(O)CN1C(=O)SC(Nc2ccc(Cl)cc2)C1=O` (centres undefined), under setting [2], the AC50 is 22.4 µM [falling, partial curve, poor fit].

For the molecule `CCCCOc1ccc2c(C)cc(=O)oc2c1OCCCC`, the AC50 runs as follows: under setting [1], 35.5 µM [rising, single point]; under setting [2], 1.41 µM [rising, partial curve].

Take `CCn1c(=O)c(C(=O)NCc2ccccn2)c(O)c2ccccc21`: the AC50 by setting is: under setting [1], 11.2 µM [rising, single point]; under setting [2], 35.5 µM [rising, single point].

In the case of `CCn1c2ccccc2c2cc(NC(=O)CSc3nnc(-c4ccccc4)o3)ccc21`, the AC50 under setting [2] is 12.6 µM [rising, partial curve].

Regarding `COc1ccc(COc2ccccc2C(=O)Nc2ccccn2)cc1[N+](=O)[O-]`, the AC50 under setting [2] was 35.5 µM [falling, single point].

As for `COc1ccc(-c2ccc(SCC(=O)NCc3ccco3)nn2)cc1`, the AC50 was 3.98 µM [rising, full curve, poor fit] under setting [1] and 2.82 µM [rising, full curve] under setting [2].

For `CCN(CC)CCNc1ncnc2c1sc1nc(N3CCOCC3)c3c(c12)CC(C)(C)SC3`, the AC50 is, setting by setting: under setting [1], 22.4 µM [falling, single point]; under setting [2], 35.5 µM [falling, single point].

`C=C[C@](C)(O)CCC1C(=C)CCC2[C@@](C)(CO)CCC[C@@]12C` (some centres undefined): the AC50 by setting is: under setting [1], 35.5 µM [rising, single point]; under setting [2], 11.2 µM [rising, partial curve].

On to `Cc1ccc(-c2cn3cc([N+](=O)[O-])ccc3n2)cc1`, for which the AC50 reads like this: under setting [1], 10 µM [rising, partial curve]; under setting [2], 8.91 µM [rising, partial curve].

For `COc1ccc(S(=O)(=O)NCC(c2cccnc2)N2CCN(c3ccc(F)cc3)CC2)cc1C` (centres undefined), under setting [2], the AC50 is 11.2 µM [rising, single point].

On to `NC(=NCCc1ccc(Cl)cc1)NS(=O)(=O)c1ccc(F)cc1`, for which the AC50 under setting [1] is 35.5 µM [rising, single point] and the concentration at half-maximal activity (AC50) under setting [2] is 35.5 µM [rising, single point].

As for `Cc1ccc(C)c(Cn2c(=O)n(CC3CCC(C(=O)N4CCOCC4)CC3)c(=O)c3sccc32)c1` (centres undefined), under setting [2], the AC50 was 11.2 µM [rising, partial curve].

Take `O=P(CCO)(c1ccccc1)c1ccccc1`: under setting [1], the AC50 is 0.00447 µM [rising, full curve, poor fit].

Take `CCN(Cc1ccccc1)c1ccc(/C=N/NS(=O)(=O)c2cccc([N+](=O)[O-])c2)cc1`: the AC50 under setting [2] was 4.47 µM [rising, single point].

Take `CCCCc1ccc(NC2=NCC(=O)N2CCc2ccccc2)cc1`: the AC50 under setting [1] was 35.5 µM [falling, single point].

For the molecule `O=C(c1ccc(S(=O)(=O)N2CCOCC2)cc1)N(Cc1ccco1)Cc1cccs1`, under setting [2], the half-maximal activity concentration (AC50) was 11.2 µM [rising, single point].

As for `CCOc1ccc(C(=O)OCCN(CC)CC)cc1`, the AC50 is, setting by setting: under setting [1], 4.47 µM [rising, partial curve, poor fit]; under setting [2], 10 µM [rising, partial curve, poor fit].

As to `COc1cccc(CNS(=O)(=O)c2ccc3[nH]c4c(c3c2)CCCCC4)c1`, the AC50 under setting [1] was 0.00501 µM [falling, full curve].

As for `N#Cc1cccc(-c2nc3cnc(Oc4cccc(Cl)c4)nc3n(C3CC3)c2=O)c1`, the AC50 under setting [1] is 5.62 µM [falling, full curve].

For the molecule `O=C(CSC1=NCCS1)NC(NC(=O)CSC1=NCCS1)c1ccccc1`, the AC50 under setting [2] is 14.1 µM [rising, partial curve].

`Cn1ncc(Br)c1C(=O)N1CCc2ccccc21`: under setting [1], the AC50 is 14.1 µM [rising, single point].

As to `COC(=O)c1cccc([N+](=O)[O-])c1CN1CCCC(C(N)=O)C1` (centres undefined), the AC50 under setting [1] is 0.002 µM [rising, full curve, poor fit].

On to `Cn1cc(C(=O)c2ccc(Cl)cc2)cc1-c1nc2ccccc2n1C`, for which the AC50 under setting [2] was 20 µM [falling, partial curve].

As for `CC(=O)OC[C@@]1(O)C[C@]23CCC4c5ccoc5CC[C@@]4(C)C2CCC1C3` (some centres undefined), the AC50 under setting [2] is 17.8 µM [rising, single point].

`COc1ccc(S(=O)(=O)N(C(=O)C(C)C)c2ccc3oc(=O)sc3c2)cc1`: under setting [2], the AC50 is 15.8 µM [rising, single point].

With `CCn1c(/C=C/N(C(C)=O)c2ccccc2)[n+](CC)c2ccc(Cl)cc21`, the concentration at half-maximal activity (AC50) under setting [2] was 10 µM [rising, partial curve, poor fit].

With `O=C(Nc1nc2c(F)cccc2s1)c1ccc(S(=O)(=O)N2CCOCC2)cc1`, the AC50 under setting [1] is 1 µM [rising, full curve, poor fit].

Take `O=C(N/N=C/c1ccc(N2CCCCC2)o1)c1ccccc1`: the AC50 under setting [2] is 31.6 µM [rising, single point].

On to `CCc1cccc(CC)c1NC(=O)CN(CC(=O)O)CC(=O)O`, for which the AC50 under setting [1] was 0.0891 µM [falling, full curve, poor fit].

As for `CCCn1c(=O)c2ccccc2n2c(SCc3nc4ccccc4s3)nnc12`, the concentration at half-maximal activity (AC50) under setting [1] is 11.2 µM [rising, partial curve, poor fit].

As to `CCC(C)Sc1nnc(CSc2nc(C)cc(C)n2)n1C` (centres undefined), the concentration at half-maximal activity (AC50) under setting [2] is 2 µM [falling, partial curve, poor fit].

In the case of `COCCn1c(SCC(=O)Nc2cc(Cl)ccc2OC)nc2c(c1=O)SC(C)C2` (centres undefined), the AC50 under setting [2] is 25.1 µM [rising, single point].

For the molecule `Cc1cccc(NC(=O)CN2C(=O)S/C(=C\c3ccccn3)C2=O)c1`, the AC50 under setting [1] is 35.5 µM [rising, single point].

For `O=C(COc1ccccc1Br)c1ccc(O)cc1O`, the AC50 was 0.501 µM [rising, single point] under setting [1] and 22.4 µM [rising, single point] under setting [2].

As to `S=C(NCCc1ccccc1)Nc1ccc(Nc2ccccc2)cc1`, under setting [2], the concentration at half-maximal activity (AC50) is 3.16 µM [falling, partial curve].

Regarding `Cc1ccccc1C(=O)c1c[nH]c(C(=O)NCCCn2ccnc2)c1`, the AC50 under setting [1] was 12.6 µM [falling, partial curve].

In the case of `O=C(COC(=O)C1(c2ccccc2F)CCCC1)NCc1ccc2c(c1)OCO2`, the AC50 under setting [2] is 35.5 µM [rising, single point].

Take `CN(CCc1cnn(C)c1)C(=O)CCc1nnc(CCCc2ccccc2)o1`: under setting [1], the half-maximal activity concentration (AC50) was 0.1 µM [falling, full curve].

On to `COc1ccc(CCNC(=S)Nc2cccc3ccccc23)cc1`, for which the AC50 was 22.4 µM [rising, single point] under setting [1] and 25.1 µM [rising, single point] under setting [2].

On to `c1ccc(Nc2nc(N3CCOCC3)c3ccccc3n2)cc1`, for which the AC50 under setting [2] was 11.2 µM [rising, partial curve].

As to `O=C1NC(c2ccccc2)=C(c2nc3ccccc3s2)C(c2ccc(F)cc2)N1` (centres undefined), the AC50 was 0.0316 µM [falling, single point] under setting [1] and 0.0316 µM [falling, single point] under setting [2].

With `CCOC(=O)c1ccc(CN(Cc2ccc(C)cc2)S(=O)(=O)c2ccc(F)c(C(=O)Nc3ccc(C)c(F)c3)c2)cc1`, under setting [2], the AC50 was 2 µM [falling, partial curve].

In the case of `COc1ccccc1C1(CCNS(=O)(=O)c2ccc(C)cc2)CCOC(C(C)C)C1` (centres undefined), the AC50 was 12.6 µM [rising, single point] under setting [1] and 17.8 µM [rising, single point] under setting [2].

Take `CC1(C)CC2C1CC[C@]1(C)CCC3C(C(=O)O)CC(=O)O[C@]32C1` (some centres undefined): the AC50 is 14.1 µM [rising, partial curve] under setting [1] and 35.5 µM [rising, single point] under setting [2].

Regarding `c1ccc(-n2nnnc2CN2CCOCC2)cc1`, the AC50 under setting [2] was 0.891 µM [rising, full curve].

Turning to `CC(NC(=O)C(=O)NN=C1CCC(C(C)(C)C)CC1)c1ccccc1` (centres undefined), the AC50 under setting [1] was 4.47 µM [falling, single point].

With `O=C(NCC(c1ccc2c(c1)OCO2)N1CCN(c2ccccc2)CC1)C(=O)Nc1ccc(F)cc1` (centres undefined), under setting [2], the half-maximal activity concentration (AC50) is 0.2 µM [falling, full curve, poor fit].

As for `OC1CCCN(C(=S)Nc2ccc(SC(F)F)cc2)C1` (centres undefined), the concentration at half-maximal activity (AC50) is, setting by setting: under setting [1], 10 µM [rising, single point]; under setting [2], 15.8 µM [rising, single point].

For the molecule `Cc1onc(-c2ccccc2)c1C(=O)Nc1ccc(S(=O)(=O)N2CCCCC2)cc1`, the AC50 under setting [2] was 35.5 µM [rising, single point].
